Measurements as given in PubChem BioAssay AID2685 (National Center for Advancing Translational Sciences (NCATS), 2010).
The campaign covered roughly 320,000 compounds. About 2,100 (0.66%) were called active. Inconclusive results, whose numbers are uncertain, are shown with a selection of clear calls. Calls come from the whole dose curve; as a rule, active = well fitted inhibition curve with a large enough effect in the signal ratio, with a control signal flat (not every such curve was filed as active); inconclusive = small, poorly fitted or top-dose-only effect, or effect the other way, or a change in a side signal; inactive = flat fitted curve, though single readings scatter; the % refers to the signal ratio. Where the call is inconclusive, the potency comes from a doubtful curve fit.

assay: qHTS Assay for Lipid Storage Modulators in Drosophila S3 Cells; conditions: BODIPY lipid droplet fluorescence, 18-24 h, cells fed with added oleic acid; lipid storage change, negative = inhibition: at 46.1 µM (top of the series) unless noted
Summary of the method: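 Drosophila S3 cells loaded with oleic acid (400 uM, as added) and compounds at several concentrations; lipid droplets imaged by 488-nm laser-scanning cytometry, 500–530 nm intensity and object ratio to cell channel. Percent activity normalized to 20 uM Triacsin C.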
% is set by controls: 0 for no effect and ±100 for the full control effect; potency is the fitted concentration of half-maximal effect.

Compound | lipid storage change, negative = inhibition | Potency
Cc1ccc(C)c(NC(=O)C2CCCN(S(=O)(=O)c3c(C)nn(C)c3C)C2)c1 (stereo not drawn) | inconclusive: 148% | –
CCOC(=O)c1c(NC(=O)CSc2nc(C)cc(C)c2C#N)sc(C(C)=O)c1C | inconclusive: -7.66% | –
COc1cc2c(cc1/C=C1/NC(=O)N(c3ccccc3)C1=O)OCO2 | – | inconclusive: 0.082 µM [rising, full curve, poor fit]
S=C1NNC2(CC3CC2C2CCCC32)NN1 (stereo not drawn) | inconclusive: 0.447% | –
CSCCC(NC(N)=O)C(=O)Nc1ccc(C)cc1 (stereo not drawn) | inconclusive: -22% | –
COc1ccc(C2C(C#N)=C(N)Oc3cc(N)ccc32)cc1OC (stereo not drawn) | – | inconclusive: 14.6 µM [activator, partial curve, poor fit]
COc1ccc(CNC(=O)c2nccnc2CO)cc1 | – | inconclusive: 29.1 µM [activator, single point]
Cc1cccc(C)c1OCC(=O)Nc1ccccc1C(F)(F)F | inconclusive: 16.4% [at 9.22 µM] | –
COc1ccc(NC(=O)Cn2nnc(C(=O)NCc3ccc4c(c3)OCO4)c2N)cc1 | inconclusive: 11.7% | –
CCCCn1c(N)c(N(C)C(=O)c2ccc(Br)o2)c(=O)[nH]c1=O | – | inconclusive: 0.0046 µM [activator, full curve, poor fit]
Cn1c(C(=O)N2CCN(Cc3ccc4c(c3)OCO4)CC2)cc2sccc21 | – | inconclusive: 0.146 µM [activator, full curve, poor fit]
COC(=O)c1cc(S(=O)(=O)NCC2CCN(CCc3cccs3)CC2)c[nH]1 | – | inconclusive: 2.06 µM [activator, partial curve, poor fit]
C=CCN(C(=O)c1ccc2c(c1)nnn2C)c1ccccc1 | inconclusive: 161% | –
COc1ccc(NC(=O)c2cc3n(n2)C(C(F)(F)F)CC(c2ccc4c(c2)OCO4)N3)cc1OC (stereo not drawn) | – | active: 16.4 µM
CN(C(=O)COC(=O)c1ccc(Cl)nc1)c1c(N)n(Cc2ccccc2)c(=O)[nH]c1=O | inconclusive: -26.2% | –
CN(C(=O)CSc1nnc(-c2ccc(F)cc2)c2ccccc12)C1CCS(=O)(=O)C1 (stereo not drawn) | inconclusive: 0.911% | –
Cc1ccnc2nc(C(=O)OCC(=O)N3CC(C)CC(C)C3)nn12 (stereo not drawn) | inconclusive | –
CC(C)NS(=O)(=O)c1ccc(CCC(=O)NCc2ccco2)cc1 | inconclusive: 1.77% | –
Cc1c(OCC(=O)NCCCn2ccnc2)ccc2c3c(c(=O)oc12)CCCC3 | inconclusive: -23.9% | –
CC(C)C(=O)Nc1nnc(Cc2ccccc2)s1 | inconclusive: 11.1% | –
Cc1cccc(C)c1NC(=O)COC(=O)C1C2CC3OC(=O)C1C3C2 (stereo not drawn) | – | inconclusive: 1.84 µM [activator, partial curve, poor fit]
COc1ccc(-n2nc([N+](=O)[O-])c(=NCCc3ccc(C)cc3)n2O)cc1 | inactive | –
CCOC(=O)C1=C(c2ccccc2)OC(N)=C(C#N)C1C1CCCCC1 (stereo not drawn) | inconclusive: 119% | –
CCN1CCCC1CNC(=O)c1ccc(N2CCOCC2)c(NS(=O)(=O)c2ccc(OC)cc2)c1 (stereo not drawn) | – | inconclusive: 0.58 µM [falling, single point]
CC1(C)CC(=O)C(C2c3ccccc3Oc3ccccc32)C(=O)C1 | – | inconclusive: 5.8 µM [falling, partial curve, poor fit]
CCc1nc(C)cn1S(=O)(=O)c1ccc(Br)cc1 | – | inconclusive: 29.1 µM [activator, partial curve]

Compound | lipid storage change, negative = inhibition | Potency
O=C(CCCn1c(=S)[nH]c2ccccc2c1=O)N1CCOCC1 | inconclusive: 3.41% | –
Cc1ccc(S(=O)(=O)NCc2ccccn2)c(C)c1 | inconclusive: -10.4% | –
COc1ccc(C2=CSC3=NCCN23)cc1OC | inconclusive: 4.44% | –
CC(CN1CCCC1)OC(=O)Cc1ccc(Cl)cc1 (stereo not drawn) | inconclusive: 111% | –
Cc1ccc(-c2noc(CCC(=O)NC3CCCC3)n2)cc1 | – | inconclusive: 7.31 µM [activator, partial curve, poor fit]
CCOCCCNC(=O)C(c1ccc(C)cc1)N(Cc1ccc2c(c1)OCO2)C(=O)CNC(C)=O (stereo not drawn) | inconclusive: 9.07% | –
COc1cc(NC(=O)CSCc2ccc(Cl)cc2)c(C(=O)O)cc1OC | – | inconclusive: 20.6 µM [activator, partial curve]
Cc1ccc(NC(=O)/C=C/c2cccc([N+](=O)[O-])c2)nc1 | – | inconclusive: 0.0046 µM [cytotoxic, full curve, poor fit]
Cc1cc(C(=O)N2CCCC(N3CCN(c4cccc(Cl)c4)CC3)C2)no1 (stereo not drawn) | inconclusive: 39.7% | –
N#CC(C(=O)NC1CCCCC1)c1nc2ccccc2nc1N1CCOCC1 (stereo not drawn) | inconclusive: 24.7% | –
Cc1ccc(NC(=O)COc2coc(CN3CCc4ccccc43)cc2=O)cc1Cl | inconclusive | –
O=C(Cn1ncc2c1-c1ccccc1OC2)N1CCN(Cc2ccc3c(c2)OCO3)CC1 | inconclusive: 3.52% | –
Cc1cc(C)c(C#N)c(Oc2ccccc2Br)n1 | inconclusive: 25.7% [at 9.22 µM] | –
CCOCCCNC(=O)CN1C(=O)c2cccc3cccc1c23 | inactive | –
CCCc1cc(=O)[nH]c(SC(C)C(=O)Nc2ccc3c(c2)OCCO3)n1 (stereo not drawn) | – | inconclusive: 23.1 µM [activator, single point]
CCCCN(C(=O)c1cc2c(s1)CCC2)c1c(N)n(CC(C)C)c(=O)[nH]c1=O | inconclusive: 62.7% | –
COc1ccc(S(=O)(=O)N2CCN(Cc3cccc(OC)c3)CC2)cc1 | – | inconclusive: 29.1 µM [activator, single point]
O=c1oc2ccccc2cc1-c1csc(Nc2ccc(O)cc2)n1 | inconclusive: -61% | –
COc1ccc(Cn2c(SCc3cc(C)ccc3C)nc3cc(OC)c(OC)cc3c2=N)cc1 | inconclusive: -49.4% | –
CCCn1c(N)c(C(=O)CSc2nc(C)cs2)c(=O)n(C)c1=O | – | inconclusive: 23.1 µM [falling, single point]
CN1CCc2nc3ccccc3c(C(=O)OCC(=O)N(CCC#N)c3ccccc3)c2C1 | inconclusive: 2.11% | –
CCC(CC)C(=O)Nc1cccc(SC)c1 | inconclusive: 40.6% | –
CCOC(=O)Cn1nc(-c2ccc(Cl)cc2)ccc1=O | inconclusive: 41.5% | –
Cc1ccc(NC(=O)C2CCN(S(C)(=O)=O)CC2)cc1C | – | active: 6.51 µM
Cc1ccc(C(=O)NCC(=O)NC2CCC(C)CC2)s1 (stereo not drawn) | – | inconclusive: 20.6 µM [activator, partial curve, poor fit]
S=C(NCC1CCCO1)N1CCN(c2nc(-c3ccc(Cl)cc3)cs2)CC1 (stereo not drawn) | – | inconclusive: 10.3 µM [falling, partial curve, poor fit]

Compound | lipid storage change, negative = inhibition | Potency
COc1ccc(OCc2cc(C(=O)NC3CCOCC3)no2)c2ccccc12 | inconclusive: 295% | –
CCc1cccc(C)c1NC(=O)C1CCCO1 (stereo not drawn) | – | inconclusive: 6.51 µM [activator, single point]
O=C(NNC(=O)c1cnccc1C(F)(F)F)c1ccccc1 | inactive | –
Nc1c(C(=O)NCc2cccnc2)sc(=S)n1-c1ccccc1 | – | inconclusive: 4.11 µM [activator, single point]
O=C(CSc1nncn1-c1ccccc1)Nc1ccccc1F | inconclusive: 18.9% | –
CC(=O)Nc1ccc(/C=N/NC(=S)NC(C)C)cc1 | inconclusive: 16.5% | –
CCN(CC)S(=O)(=O)c1ccc(NC(=O)C(OC)c2ccccc2)cc1 (stereo not drawn) | – | inconclusive: 0.206 µM [activator, full curve, poor fit]
O=S(=O)(NCCSc1nnnn1-c1ccccc1)c1cccs1 | inconclusive: 24.6% | –
COc1ccc(C(=O)Nc2cc(OC)c(NC(=O)c3ccco3)cc2OC)cc1 | inconclusive: 79.9% | –
COc1ccc(/C=N/NC(=O)c2ccn[nH]2)cc1COc1ccc(Cl)cc1Cl | inconclusive: 1.68% | –
Cn1cccc1C(=O)OCC(=O)Nc1ccc2c(c1)OCO2 | inconclusive: 26.3% | –
Cc1cc(C)c(S(=O)(=O)NCC(=O)NCc2ccccn2)c(C)c1 | inconclusive: -12.8% | –
O=C(/C=C/c1ccccc1)Nc1ccc(CN2CCOCC2)cc1 | inconclusive: 12.3% | –
COc1ccc(C(=O)COC(=O)c2ccc(Cl)nc2)c(OC)c1 | inconclusive | –
O=C(O)c1cccc(S(=O)(=O)NCCC(c2ccccc2)c2ccccc2)c1 | – | inconclusive: 0.206 µM [activator, full curve]
COc1ccc(NC(=O)CN(C)C(=O)CN2C(=O)NC3(CCCCC3)C2=O)cc1 | inconclusive: -25.3% | –
CCN(CC)S(=O)(=O)c1cccc(NC(=O)COC(=O)c2n[nH]c(=O)c3ccccc23)c1 | inconclusive: 46.1% | –
COC(=O)C(=C/C=C/N1CCOCC1)C(=O)OC | inconclusive: -21.5% | –
O=C1CCCc2ccccc2N1Cc1ccccc1 | inconclusive: 1.24% | –
Cc1ccc2nc(NCc3ccccc3)c(C=O)c(=O)n2c1 | inconclusive: 13.2% | –
Cc1c(C)n(CCCN(C)C)c2ncnc(Nc3ccc(F)cc3)c12 | inconclusive: 62.9% | –
CC12CCC3c4ccc(O)cc4CCC3C1CC(O)C2O (stereo not drawn) | inconclusive: -8.68% | –
CN(c1ccccc1C(=O)N1CCN(c2ccccc2F)CC1)S(=O)(=O)c1ccccc1 | inconclusive: -10.4% | –
Cc1cc(C)c2nc(N(CCCN(C)C)C(=O)c3ccc4c(c3)OCCO4)sc2c1 | inconclusive: -29.1% | –
CCCCCC(=O)Nc1ccc(C(=O)COC(=O)c2ccccn2)cc1 | inconclusive: 8.93% | –
Cc1cc(C)n2nc(SCC(=O)N/N=C/c3ccccn3)nc2n1 | inconclusive: 19% | –

Rewritten in markdown: 6 of the compounds above

| Compound | lipid storage change, negative = inhibition | Potency |
| --- | --- | --- |
| Cc1ccc2nc(NCc3ccccc3)c(C=O)c(=O)n2c1 | inconclusive: 13.2% | – |
| Cc1c(C)n(CCCN(C)C)c2ncnc(Nc3ccc(F)cc3)c12 | inconclusive: 62.9% | – |
| CC12CCC3c4ccc(O)cc4CCC3C1CC(O)C2O (stereo not drawn) | inconclusive: -8.68% | – |
| CN(c1ccccc1C(=O)N1CCN(c2ccccc2F)CC1)S(=O)(=O)c1ccccc1 | inconclusive: -10.4% | – |
| Cc1cc(C)c2nc(N(CCCN(C)C)C(=O)c3ccc4c(c3)OCCO4)sc2c1 | inconclusive: -29.1% | – |
| CCCCCC(=O)Nc1ccc(C(=O)COC(=O)c2ccccn2)cc1 | inconclusive: 8.93% | – |
